Values quoted from earlier work, collected in paper PMC4014002 (The FEBS journal, 2014).

Biological target: T94T and T94A
Settings: cited from earlier work

CC(C)OC(=O)C(C)(C)Oc1ccc(C(=O)c2ccc(Cl)cc2)cc1 [fenofibrate]
Ki, T94T compared with T94A: same (or similar) Ki
